Source: patent publication US20230201173A1, “SMAD4 Complex Inducers and Uses in Cancer Therapy” (Emory University, priority 2021, published 2023)
No constants are given. Whether binding was seen depends on the method and setting. For part of these data: Binding seen in cells or lysates may run through a third protein. Some binding calls cover weakened binding; strength is not graded here. Tags and fused reporters may be left off the sequences shown.

Legend:
Details in all cases: remark: other sources report otherwise
Flag-SMAD3, P84022 = assay: TR-FRET, HEK293T cell lysate, anti-Flag-Tb donor / anti-His-D2 acceptor
SMAD2, Q15796 = assay: TR-FRET with compound titration (Ro-31-8220, Go-6983)
[1] = molecular target: SMAD3 (prey in the GST pull-down), P84022; assay: GST beads pull-down from cell lysate

B1: His-SMAD4WT, Q13485 1-552 (protein, not shown: small tags and cut ends)
chain: MDNMSITNTPTSNDACLSIVHSLMCHRQGGESETFAKRAIESLVKKLKEKKDELDSLITAITTNGAHPSKCVTIQRTLDGRLQVAGRKGFPHVIYARLWRWPDLHKNELKHVKYCQYAFDLKCDSVCVNPYHYERVVSPGIDLSGLTLQSNAPSSMMVKDEYVHDFEGQPSLSTEGHSIQTIQHPPSNRASTETYSTPALLAPSESNATSTANFPNIPVASTSQPASILGGSHSEGLLQIASGPQPGQQQNGFTGQPATYHHNSTTTWTGSRTAPYTPNLPHHQNGHLQHHPPMPPHPGHYWPVHNELAFQPPISNHPAPEYWCSIAYFEMDVQVGETFKVPSSCPIVTVDGYVDPSGGDRFCLGQLSNVHRTEAIERARLHIGKGVQLECKGEGDVWVRCLSDHAVFVQSYYLDREAGRAPGDAVHKIYPSAYIKVFDLRQCHRQMQQQAATAQAAAAAQAAAVAGNIPGPGSVGGIAPAISLSAAAGIGVDDLRRLCILRMSFVKGWGPDYPRQSIKETPCWIEIHLHRALQLLDEVLHTMPIADPQPLD
B1 was tested, and the binding (Flag-SMAD3, P84022) was “binds”.

B2: His-SMAD4R361H, Q13485 1-552 (protein, not shown: small tags and cut ends)
chain: MDNMSITNTPTSNDACLSIVHSLMCHRQGGESETFAKRAIESLVKKLKEKKDELDSLITAITTNGAHPSKCVTIQRTLDGRLQVAGRKGFPHVIYARLWRWPDLHKNELKHVKYCQYAFDLKCDSVCVNPYHYERVVSPGIDLSGLTLQSNAPSSMMVKDEYVHDFEGQPSLSTEGHSIQTIQHPPSNRASTETYSTPALLAPSESNATSTANFPNIPVASTSQPASILGGSHSEGLLQIASGPQPGQQQNGFTGQPATYHHNSTTTWTGSRTAPYTPNLPHHQNGHLQHHPPMPPHPGHYWPVHNELAFQPPISNHPAPEYWCSIAYFEMDVQVGETFKVPSSCPIVTVDGYVDPSGGDHFCLGQLSNVHRTEAIERARLHIGKGVQLECKGEGDVWVRCLSDHAVFVQSYYLDREAGRAPGDAVHKIYPSAYIKVFDLRQCHRQMQQQAATAQAAAAAQAAAVAGNIPGPGSVGGIAPAISLSAAAGIGVDDLRRLCILRMSFVKGWGPDYPRQSIKETPCWIEIHLHRALQLLDEVLHTMPIADPQPLD
For B2, the binding (SMAD2, Q15796) was “binds”.

B3: GST-SMAD4WT, Q13485 1-552 (protein, not shown: a dimerising Fc or GST)
chain: MDNMSITNTPTSNDACLSIVHSLMCHRQGGESETFAKRAIESLVKKLKEKKDELDSLITAITTNGAHPSKCVTIQRTLDGRLQVAGRKGFPHVIYARLWRWPDLHKNELKHVKYCQYAFDLKCDSVCVNPYHYERVVSPGIDLSGLTLQSNAPSSMMVKDEYVHDFEGQPSLSTEGHSIQTIQHPPSNRASTETYSTPALLAPSESNATSTANFPNIPVASTSQPASILGGSHSEGLLQIASGPQPGQQQNGFTGQPATYHHNSTTTWTGSRTAPYTPNLPHHQNGHLQHHPPMPPHPGHYWPVHNELAFQPPISNHPAPEYWCSIAYFEMDVQVGETFKVPSSCPIVTVDGYVDPSGGDRFCLGQLSNVHRTEAIERARLHIGKGVQLECKGEGDVWVRCLSDHAVFVQSYYLDREAGRAPGDAVHKIYPSAYIKVFDLRQCHRQMQQQAATAQAAAAAQAAAVAGNIPGPGSVGGIAPAISLSAAAGIGVDDLRRLCILRMSFVKGWGPDYPRQSIKETPCWIEIHLHRALQLLDEVLHTMPIADPQPLD
B3 was tested, and the binding [1] was “binds”.
